Source: PubChem BioAssay AID248 (DTP/NCI, 2004)
The list is a part of this screen's results and no random one: it gathers tests that were run many times, whatever their T/C, doses with no T/C, and many T/C values between a quarter and a half above the control. Other doses and runs of a compound stand elsewhere. T/C: endpoint of the treated group in % of that of the vehicle group. Some doses have a count of surviving animals in place of a T/C: the source files T/C as zero there, which appears to mark a toxic dose or a test without result, not a measured value. Some survivor counts are full or nearly so, which does not show that the dose was tolerated: the source hardly ever lists a survival T/C far under the control, and the zero likely stands for such cases as well. Survivors were counted at the toxicity check, usually on the fifth day, unless a day is given; later deaths do not show. Schedules are NCI's codes, taken here to give the interval after Q, in days (D) or hours (H), and the number of doses after X. Some doses were run more than once; the results are listed from low to high. For survival time, this PubChem deposit counts one and a half times the control or more as active, and values a quarter to a half above the control carry no call in these data; other NCI protocols may use other cut-offs. Additions like (4×) stand for listed records that agree. Some T/C values carry the count of animals alive at the toxicity check (mostly the fifth day); without a count, all were alive then.

System: L1210 leukemia ip in BDF1 mice, survival T/C
Assay: NCI In Vivo Anticancer Drug Screen. Data for tumor model L1210 Leukemia (intraperitoneal) in B6D2F1 (BDF1) mice
Details: T/C endpoint: median survival time, higher T/C = longer survival

Question: How did the T/C (dose: 1.08 mg/kg/injection, schedule: Q03HX008 (sc), vehicle: water) turn out when COc1cccc2c1C(=O)c1c(O)c3c(c(O)c1C2=O)C[C@@](O)(C(=O)CO)C[C@@H]3OC1CC(N)C(O)C(C)O1 (some centres undefined) was run?
Answer: 125 % of control

Question: And the T/C (dose: 1.08 mg/kg/injection, schedule: Q03HX016 (ip), vehicle: water, evaluated on day 5)?
Answer: 157 % of control

Question: What about the T/C (dose: 1.08 mg/kg/injection, schedule: Q03HX016 (ip), vehicle: water, evaluated on day 46) of the same molecule?
Answer: 155 % of control

Question: And the T/C (dose: 1.08 mg/kg/injection, schedule: Q03HX016 (ip), vehicle: water, evaluated on day 60)?
Answer: 109 and 122 % of control

Question: And the T/C (dose: 1.08 mg/kg/injection, schedule: Q03HX024 (ip), vehicle: water, evaluated on day 7)?
Answer: 114 and 132 % of control

Question: And the T/C (dose: 1.08 mg/kg/injection, schedule: Q03HX024 (ip), vehicle: water, evaluated on day 32)?
Answer: 114 % of control

Question: What about the T/C (dose: 1.08 mg/kg/injection, schedule: Q03HX024 (ip), vehicle: water, evaluated on day 60) of the same molecule?
Answer: 100 and 113 % of control [7 of 8 alive]

Question: What about the T/C (dose: 1.08 mg/kg/injection, schedule: Q03HX024 (ip), vehicle: water, evaluated on day 63) of the same molecule?
Answer: 129 % of control

Question: And the T/C (dose: 1.08 mg/kg/injection, schedule: Q04DX003 (ip), vehicle: water, evaluated on day 5)?
Answer: 58, 118, 127, 134 % of control

Question: And the T/C (dose: 1.08 mg/kg/injection, schedule: Q04DX003 (ip), vehicle: water, evaluated on day 7)?
Answer: 104 % of control (2×)

Question: What about the T/C (dose: 1.08 mg/kg/injection, schedule: Q04DX003 (ip), vehicle: water, evaluated on day 31) of the same molecule?
Answer: 104 % of control

Question: What about the T/C (dose: 1.08 mg/kg/injection, schedule: Q04DX003 (ip), vehicle: water, evaluated on day 40) of the same molecule?
Answer: 104 % of control

Question: What about the T/C (dose: 1.08 mg/kg/injection, schedule: Q04DX003 (ip), vehicle: water, evaluated on day 60) of the same molecule?
Answer: 115, 127, 140 % of control

Question: What about the survivor count (dose: 1.08 mg/kg/injection, schedule: Q04DX003 (ip), vehicle: water) of the same molecule?
Answer: 8 of 8

Question: What about the T/C (dose: 1.1 mg/kg/injection, schedule: Q04DX003 (ip), vehicle: water, evaluated on day 60) of the same molecule?
Answer: 126 % of control

Question: What about the T/C (dose: 1.1 mg/kg/injection, schedule: Q04DX003 (ip), vehicle: water, evaluated on day 90) of the same molecule?
Answer: 138 % of control

Question: What about the T/C (dose: 1.17 mg/kg/injection, schedule: Q03HX008 (ip), vehicle: water) of the same molecule?
Answer: 133 % of control

Question: And the T/C (dose: 1.25 mg/kg/injection, schedule: Q04DX003 (ip), vehicle: water, evaluated on day 5)?
Answer: 131 % of control

Question: What about the T/C (dose: 1.25 mg/kg/injection, schedule: Q04DX003 (ip), vehicle: water, evaluated on day 46) of the same molecule?
Answer: 133 % of control

Question: And the T/C (dose: 1.5 mg/kg/injection, schedule: Q01DX005 (ip), vehicle: other, evaluated on day 5)?
Answer: 126 % of control

Question: What about the T/C (dose: 1.5 mg/kg/injection, schedule: Q01DX005 (ip), vehicle: other, evaluated on day 31) of the same molecule?
Answer: 126 % of control

Question: And the T/C (dose: 1.5 mg/kg/injection, schedule: Q03HX008 (ip), vehicle: water, evaluated on day 5)?
Answer: 79, 93, 139, 144, 148 % of control

Question: And the T/C (dose: 1.5 mg/kg/injection, schedule: Q03HX008 (ip), vehicle: water, evaluated on day 7)?
Answer: 134 % of control

Question: And the T/C (dose: 1.5 mg/kg/injection, schedule: Q03HX008 (ip), vehicle: water, evaluated on day 20)?
Answer: 148 % of control

Question: And the T/C (dose: 1.5 mg/kg/injection, schedule: Q03HX008 (ip), vehicle: water, evaluated on day 29)?
Answer: 139 % of control

Question: And the T/C (dose: 1.5 mg/kg/injection, schedule: Q03HX008 (ip), vehicle: water, evaluated on day 30)?
Answer: 93 [6 of 8 alive], 134, 144 % of control

Question: What about the survivor count (dose: 1.5 mg/kg/injection, schedule: Q03HX008 (ip), vehicle: water) of the same molecule?
Answer: 7 of 8

Question: And the T/C (dose: 1.8 mg/kg/injection, schedule: Q01DX005 (ip), vehicle: water, evaluated on day 5)?
Answer: 120 % of control

Question: What about the T/C (dose: 1.8 mg/kg/injection, schedule: Q01DX005 (ip), vehicle: water, evaluated on day 35) of the same molecule?
Answer: 135 % of control

Question: And the T/C (dose: 1.8 mg/kg/injection, schedule: Q01DX005 (ip), vehicle: water, evaluated on day 60)?
Answer: 105 and 120 % of control

Question: And the T/C (dose: 1.8 mg/kg/injection, schedule: Q01DX005 (ip), vehicle: water, evaluated on day 90)?
Answer: 127 % of control

Question: What about the T/C (dose: 1.8 mg/kg/injection, schedule: Q03HX008 (ip), vehicle: water, evaluated on day 5) of the same molecule?
Answer: 51, 78, 154, 158 % of control

Question: And the T/C (dose: 1.8 mg/kg/injection, schedule: Q03HX008 (ip), vehicle: water, evaluated on day 7)?
Answer: 111, 116, 126, 151 % of control

Question: What about the T/C (dose: 1.8 mg/kg/injection, schedule: Q03HX008 (ip), vehicle: water, evaluated on day 20) of the same molecule?
Answer: 116 % of control

Question: And the T/C (dose: 1.8 mg/kg/injection, schedule: Q03HX008 (ip), vehicle: water, evaluated on day 30)?
Answer: 170 % of control

Question: And the T/C (dose: 1.8 mg/kg/injection, schedule: Q03HX008 (ip), vehicle: water, evaluated on day 32)?
Answer: 126 % of control

Question: What about the T/C (dose: 1.8 mg/kg/injection, schedule: Q03HX008 (ip), vehicle: water, evaluated on day 33) of the same molecule?
Answer: 140 % of control

Question: What about the T/C (dose: 1.8 mg/kg/injection, schedule: Q03HX008 (ip), vehicle: water, evaluated on day 35) of the same molecule?
Answer: 220 % of control

Question: What about the T/C (dose: 1.8 mg/kg/injection, schedule: Q03HX008 (ip), vehicle: water, evaluated on day 46) of the same molecule?
Answer: 155 % of control

Question: What about the T/C (dose: 1.8 mg/kg/injection, schedule: Q03HX008 (ip), vehicle: water, evaluated on day 60) of the same molecule?
Answer: 109, 111 [7 of 8 alive], 113 % of control

Question: What about the T/C (dose: 1.8 mg/kg/injection, schedule: Q03HX008 (ip), vehicle: water, evaluated on day 63) of the same molecule?
Answer: 141 % of control

Question: And the survivor count (dose: 1.8 mg/kg/injection, schedule: Q03HX008 (ip), vehicle: water)?
Answer: 4 of 8 and 8 of 8

Question: What about the T/C (dose: 1.8 mg/kg/injection, schedule: Q03HX008 (sc), vehicle: water) of the same molecule?
Answer: 135 % of control

Question: What about the T/C (dose: 1.8 mg/kg/injection, schedule: Q03HX016 (ip), vehicle: water, evaluated on day 5) of the same molecule?
Answer: 135 % of control

Question: What about the T/C (dose: 1.8 mg/kg/injection, schedule: Q03HX016 (ip), vehicle: water, evaluated on day 46) of the same molecule?
Answer: 133 % of control

Question: And the T/C (dose: 1.8 mg/kg/injection, schedule: Q03HX016 (ip), vehicle: water, evaluated on day 60)?
Answer: 100 and 118 % of control [6 of 8 alive]

Question: And the T/C (dose: 1.8 mg/kg/injection, schedule: Q03HX024 (ip), vehicle: water, evaluated on day 7)?
Answer: 124 and 127 % of control

Question: What about the T/C (dose: 1.8 mg/kg/injection, schedule: Q03HX024 (ip), vehicle: water, evaluated on day 32) of the same molecule?
Answer: 124 % of control

Question: What about the T/C (dose: 1.8 mg/kg/injection, schedule: Q03HX024 (ip), vehicle: water, evaluated on day 60) of the same molecule?
Answer: 109 % of control

Question: What about the T/C (dose: 1.8 mg/kg/injection, schedule: Q03HX024 (ip), vehicle: water, evaluated on day 63) of the same molecule?
Answer: 129 % of control

Question: What about the survivor count (dose: 1.8 mg/kg/injection, schedule: Q03HX024 (ip), vehicle: water) of the same molecule?
Answer: 8 of 8

Question: And the T/C (dose: 1.8 mg/kg/injection, schedule: Q04DX003 (ip), vehicle: water, evaluated on day 5)?
Answer: 44, 99, 117, 126 % of control

Question: What about the T/C (dose: 1.8 mg/kg/injection, schedule: Q04DX003 (ip), vehicle: water, evaluated on day 7) of the same molecule?
Answer: 99 and 104 % of control (2×)

Question: What about the T/C (dose: 1.8 mg/kg/injection, schedule: Q04DX003 (ip), vehicle: water, evaluated on day 31) of the same molecule?
Answer: 104 % of control
